Experimental data reported in paper PMC9482633.
No constants are given. Whether binding was seen depends on the method and setting. In cells and extracts the contact can be indirect. Some entries that bind do so weakly or less than the wild type. For some assays here: Where a sequence is shown, tags or fusion partners need not be part of it.

The chains behind the UniProt entries cited, without tags or fusion partners.
UniProt Q16665: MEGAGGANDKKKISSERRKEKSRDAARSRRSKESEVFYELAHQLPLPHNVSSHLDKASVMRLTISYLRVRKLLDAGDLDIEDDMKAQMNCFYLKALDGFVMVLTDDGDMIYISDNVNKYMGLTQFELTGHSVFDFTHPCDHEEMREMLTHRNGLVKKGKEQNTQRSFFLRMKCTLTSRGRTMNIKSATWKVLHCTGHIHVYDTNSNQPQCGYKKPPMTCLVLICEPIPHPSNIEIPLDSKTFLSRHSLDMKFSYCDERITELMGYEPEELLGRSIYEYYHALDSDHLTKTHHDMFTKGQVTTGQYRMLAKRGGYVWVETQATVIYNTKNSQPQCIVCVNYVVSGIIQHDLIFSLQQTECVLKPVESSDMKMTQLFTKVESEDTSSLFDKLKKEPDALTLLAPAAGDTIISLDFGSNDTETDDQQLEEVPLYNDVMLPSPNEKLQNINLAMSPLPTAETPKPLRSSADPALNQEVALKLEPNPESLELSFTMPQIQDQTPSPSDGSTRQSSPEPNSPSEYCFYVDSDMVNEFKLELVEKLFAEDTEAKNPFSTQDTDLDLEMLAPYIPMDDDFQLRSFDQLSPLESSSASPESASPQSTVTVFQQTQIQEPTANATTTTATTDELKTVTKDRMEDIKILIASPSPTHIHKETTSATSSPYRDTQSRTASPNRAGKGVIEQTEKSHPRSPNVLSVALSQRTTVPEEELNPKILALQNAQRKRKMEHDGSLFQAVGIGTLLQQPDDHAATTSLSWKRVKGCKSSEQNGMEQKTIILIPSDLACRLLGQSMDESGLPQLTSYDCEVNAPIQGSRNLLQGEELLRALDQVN
UniProt Q16877: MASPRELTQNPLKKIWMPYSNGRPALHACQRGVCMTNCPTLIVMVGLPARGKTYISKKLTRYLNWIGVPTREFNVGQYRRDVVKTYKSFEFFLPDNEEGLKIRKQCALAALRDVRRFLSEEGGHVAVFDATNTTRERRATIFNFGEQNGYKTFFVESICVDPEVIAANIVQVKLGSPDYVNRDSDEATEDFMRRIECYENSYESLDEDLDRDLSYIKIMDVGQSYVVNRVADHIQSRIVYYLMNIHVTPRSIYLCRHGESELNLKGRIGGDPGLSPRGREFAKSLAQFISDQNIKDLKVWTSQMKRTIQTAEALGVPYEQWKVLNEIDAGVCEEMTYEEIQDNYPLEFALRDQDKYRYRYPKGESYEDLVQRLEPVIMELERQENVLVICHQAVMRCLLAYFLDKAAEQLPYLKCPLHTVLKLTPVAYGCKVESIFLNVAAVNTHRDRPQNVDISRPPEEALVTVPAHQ

Experiments:
FBXO28-Halo = biological target: T1, FBXO28-Halo (UniProt Q9NVF7); experiment: pull-down; FBXO28-Halo and HIF-1α overexpressed in HEK293T cells; pulldown on Halo resin, elution by TEV cleavage; immunoblot with FBXO28 and HIF-1α antibodies
T1 sequence: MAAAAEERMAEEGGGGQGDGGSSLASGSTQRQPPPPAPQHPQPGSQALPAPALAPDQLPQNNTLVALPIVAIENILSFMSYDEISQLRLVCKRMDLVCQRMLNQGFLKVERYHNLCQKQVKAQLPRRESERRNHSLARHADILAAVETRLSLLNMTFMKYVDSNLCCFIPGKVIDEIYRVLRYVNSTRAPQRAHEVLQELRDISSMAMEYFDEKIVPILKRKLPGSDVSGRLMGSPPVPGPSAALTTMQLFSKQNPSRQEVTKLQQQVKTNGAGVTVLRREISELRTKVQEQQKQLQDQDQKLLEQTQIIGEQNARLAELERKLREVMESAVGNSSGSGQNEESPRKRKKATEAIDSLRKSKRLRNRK

[1] = biological target: T2, SmBiT-tagged FBXO28 (N-term) (UniProt Q9NVF7); experiment: split reporter; split NanoLuc luciferase in HEK293T cells, competition: increasing amounts of untagged PFKFB4 pLVX plasmid, empty pLVX as control; percent inhibition
T2 sequence: T1 sequence

binding (FBXO28-Halo)	binding [1]	Substance
binds		hypoxia inducible factor 1-alpha (HIF-1α) (from UniProt Q16665 1-826)
	binds	untagged PFKFB4 (pLVX plasmid) (from UniProt Q16877 1-469) (enzyme)
